Assay results as given in PMC3945735.
These are yes or no findings as the source states them, for the method shown.

Biological target: recombinant Ani s 5 (Anisakis simplex) (UniProt A1IKL2)
Assay: AUC; sedimentation velocity, interference optics, 45,000 rpm, 20°C, under the NMR conditions (approximately 0.5 mM labelled His-tagged protein, pH 5.0 and 3.5); c(s) analysis with SEDFIT; both purified

B1: recombinant Ani s 5 (protein, UniProt A1IKL2 19-152)
chain: DDTPPPPPFLAGAPQDVVKAFFELLKKDETKTDPEIEKDLDAWVDTLGGDYKAKFETFKKEMKAKEAELAKAHEEAVAKMTPEAKKADAELSKIAEDDSLNGIQKAQKIQAIYKTLPQSVKDELEKGIGPAVPQ
modifications: 100% 13C and 15N isotopic labelling
**Q.** How did the binding turn out when B1 was run?
**A.** The binding was “no binding (tested: approximately 0.5 mM (NMR conditions))”.
